Laboratory results taken from publication doi:10.1101/2022.03.20.485012.
These are yes or no findings as the source states them, for the method shown. Binding seen in cells or lysates may run through a third protein. Here binding means that the protein was enriched with, or labelled near, the bait; the list need not be complete. Tags and fused reporters may be left off the sequences shown.

Biological target: T1, FLAG-STING (mouse STING) (mouse) (UniProt Q3TBT3)
T1 sequence: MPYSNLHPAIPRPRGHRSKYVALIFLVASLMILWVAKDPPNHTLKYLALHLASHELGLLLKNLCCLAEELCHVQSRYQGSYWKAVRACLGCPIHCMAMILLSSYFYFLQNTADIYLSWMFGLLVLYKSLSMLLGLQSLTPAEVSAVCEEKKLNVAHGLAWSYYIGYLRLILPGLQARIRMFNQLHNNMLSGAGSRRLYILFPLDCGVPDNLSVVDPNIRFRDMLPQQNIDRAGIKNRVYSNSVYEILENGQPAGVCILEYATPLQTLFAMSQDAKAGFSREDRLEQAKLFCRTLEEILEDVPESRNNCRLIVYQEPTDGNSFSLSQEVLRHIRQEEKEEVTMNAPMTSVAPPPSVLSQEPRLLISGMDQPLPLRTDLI
Test: affinity purification with mass spectrometry

B1: Vps4a (protein, UniProt Q8VEJ9 1-437)
chain: MTTSTLQKAIDLVTKATEEDKAKNYEEALRLYQHAVEYFLHAIKYEAHSDKAKESIRAKCMQYLDRAEKLKDYLRNKEKHGKKPVKENQSEGKGSDSDSEGDNPEKKKLQEQLMGAVVMEKPNIRWNDVAGLEGAKEALKEAVILPIKFPHLFTGKRTPWRGILLFGPPGTGKSYLAKAVATEANNSTFFSVSSSDLMSKWLGESEKLVKNLFELARQHKPSIIFIDEVDSLCGSRNENESEAARRIKTEFLVQMQGVGNNNDGTLVLGATNIPWVLDSAIRRRFEKRIYIPLPEEAARAQMFRLHLGSTPHNLTDANIHELARKTEGYSGADISIIVRDSLMQPVRKVQSATHFKKVCGPSRTNPSVMIDDLLTPCSPGDPGAIEMTWMDVPGDKLLEPVVCMSDMLRSLATTRPTVNADDLLKVKKFSEDFGQES
binding: binds

B2: Vps4b (protein, UniProt P46467 1-444)
chain: MASTNTNLQKAIDLASKAAQEDKAGNYEEALQLYQHAVQYFLHVVKYEAQGDKAKQSIRAKCTEYLDRAEKLKEYLKKKEKKPQKPVKEEQSGPVDEKGNDSDGEAESDDPEKKKLQNQLQGAIVIERPNVKWSDVAGLEGAKEALKEAVILPIKFPHLFTGKRTPWRGILLFGPPGTGKSYLAKAVATEANNSTFFSISSSDLVSKWLGESEKLVKNLFQLARENKPSIIFIDEIDSLCGSRSENESEAARRIKTEFLVQMQGVGVDNDGILVLGATNIPWVLDSAIRRRFEKRIYIPLPEAHARAAMFRLHLGSTQNSLTEADFQELGRKTDGYSGADISIIVRDALMQPVRKVQSATHFKKVRGPSRADPNCIVNDLLTPCSPGDPGAIEMTWMDVPGDKLLEPVVSMWDMLRSLSSTKPTVNEQDLLKLKKFTEDFGQEG
binding: binds

B3: Tsg101 (protein, UniProt Q61187 1-391)
chain: MAVSESQLKKMMSKYKYRDLTVRQTVNVIAMYKDLKPVLDSYVFNDGSSRELVNLTGTIPVRYRGNIYNIPICLWLLDTYPYNPPICFVKPTSSMTIKTGKHVDANGKIYLPYLHDWKHPRSELLELIQIMIVIFGEEPPVFSRPTVSASYPPYTATGPPNTSYMPGMPSGISAYPSGYPPNPSGYPGCPYPPAGPYPATTSSQYPSQPPVTTVGPSRDGTISEDTIRASLISAVSDKLRWRMKEEMDGAQAELNALKRTEEDLKKGHQKLEEMVTRLDQEVAEVDKNIELLKKKDEELSSALEKMENQSENNDIDEVIIPTAPLYKQILNLYAEENAIEDTIFYLGEALRRGVIDLDVFLKHVRLLSRKQFQLRALMQKARKTAGLSDLY
binding: binds
